In PubChem BioAssay AID602464 (Sanford-Burnham Center for Chemical Genomics, 2012):

System: Gli-responsive luciferase reporter cells, SUFU pathway antagonism
Experiment: Gli-SUFU pathway antagonists, dose response, cell-based, luciferase luminescence, uHTS hits (AID 602464)

SMILES: O=C(CCCCCCC(=O)Nc1ccccc1)NO
- IC50: 2230 nM
